Experimental data as given in patent US20100173028A1, “PROCESS FOR PREPARING VITIS VINIFERA PIP EXTRACT AND PHARMACEUTICAL COMPOSITION FOR PREVENTING OR TREATING RHEUMATOID ARTHRITIS COMPRISING THE SAME” (priority 2007, published 2010).
At least one compound was matched to its structure with a doubt left.

System: collagen induced arthritis (CIA) animal model
Experiment: Average arthritis score in CIA animals, oral administration study
Assay type: in vivo, DBA-1 mice
Conditions: celecoxib 3 mg/kg in 10% DMSO, intraperitoneal; CIA mice, 8 weeks; vs 10% DMSO (FIG. 10)

Which arthritis score does the source give for `Cc1ccc(-c2cc(C(F)(F)F)nn2-c2ccc(S(N)(=O)=O)cc2)cc1` [celecoxib] here?
Its arthritis score is “decreased”.
